Measurements taken from the supplement of paper PMC10470496.
Counter-ions that a name gives are not always drawn. The list shows a part of the results. Many values rest on one well or one pass, so single values are uncertain.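 Three clinical Candida auris isolates (clades III, IV and I) from the CDC resistance isolate bank were grown in RPMI-1640 at 35°C. Growth was background-corrected OD600 relative to same-plate vehicle-only wells. Hits required over 50% inhibition in at least two strains and a plate-corrected B-score above 0.1.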

What was measured:
Assay in all cases: growth relative to vehicle control (OD600 ratio) (fraction); higher = less inhibition
Details in all cases: 24 h
C. auris AR-384 = system: C. auris AR-384
C. auris AR-386 = system: C. auris AR-386
C. auris AR-387 = system: C. auris AR-387

SMILES	growth (C. auris AR-384; 1 µM)	growth (C. auris AR-384; 10 µM)	growth (C. auris AR-386; 1 µM)	growth (C. auris AR-386; 10 µM)	growth (C. auris AR-387; 1 µM)	growth (C. auris AR-387; 10 µM)
CN[C@@H]1[C@H](O)[C@H](NC)[C@H]2O[C@@]3(O)C(=O)C[C@@H](C)O[C@H]3O[C@@H]2[C@H]1O [Spectinomycin 2HCl]	0.76	0.59	0.59	0.68	0.67	0.54
CN1CCN(c2ccc(C(=O)Nc3n[nH]c4ccc(Cc5cc(F)cc(F)c5)cc34)c(NC3CCOCC3)c2)CC1 [Entrectinib (RXDX-101)]	0.95	0.93	0.87	1.08	0.78	0.83
C=CC(=O)Nc1cccc(Oc2nc(Nc3ccc(N4CCN(C)CC4)cc3)nc3ccsc23)c1	0.95	0.78	0.64	0.5	0.61	0.69
O=c1c(-c2ccc(O)cc2)coc2cc(O)cc(O)c12 [Genistein]	0.83	0.71	0.86	0.91	0.71	0.66
C=C1CC[C@H](O)C/C1=C/C=C1\CCC[C@]2(C)[C@@H]([C@H](C)/C=C/[C@H](C)C(C)C)CC[C@@H]12 [Vitamin D2]	0.89	0.9	0.56	0.71	0.64	0.76
C[C@]12CCC(=O)C=C1[C@@H]1C[C@@H]1[C@H]1[C@@H]3[C@@H]4C[C@@H]4[C@@]4(CCC(=O)O4)[C@@]3(C)CC[C@@H]12 [Drospirenone]	1.11	0.82	1.12	1.3	1.33	0.98
NC(=O)N1CCC(CC(=O)N2CCC([C@H]3c4ncc(Br)cc4CCc4cc(Cl)cc(Br)c43)CC2)CC1 [Lonafarnib]	1.1	0.89	0.95	0.76	0.95	1.11
CCS(=O)(=O)CCn1c([N+](=O)[O-])cnc1C [Tinidazole]	0.84	0.79	0.74	0.75	0.7	0.65
O=C1c2c(O)ccc(O)c2C(=O)c2c(NCCNCCO)ccc(NCCNCCO)c21 [Mitoxantrone 2HCl]	0.99	2.17	1.08	1.41	1.07	1.33
CN(C)CCC(c1ccccc1)c1ccccn1 (stereo not given) [Pheniramine Maleate]	0.73	0.7	0.56	0.88	0.83	0.9
C[C@@H](O)[C@H]1C(=O)N2C(C(=O)O)=C(S[C@@H]3CN[C@H](C(=O)N(C)C)C3)[C@H](C)[C@H]12 [Meropenem]	0.93	1.3	1.12	1.16	0.96	1.08
CC(C)(Oc1ccc(C2CC2(Cl)Cl)cc1)C(=O)O (stereo not given) [Ciprofibrate]	0.78	0.86	1.16	1.18	1.1	1.02
CC(C)(Sc1cc(C(C)(C)C)c(O)c(C(C)(C)C)c1)Sc1cc(C(C)(C)C)c(O)c(C(C)(C)C)c1 [Probucol]	0.9	1.18	0.98	0.45	0.71	0.62
Fc1ccc(C(c2ccc(F)cc2)N2CCN(C/C=C/c3ccccc3)CC2)cc1 [Flunarizine 2HCl]	0.95	1	1	0.71	0.81	0.77
CC(=O)OCC(CCn1cnc2cnc(N)nc21)COC(C)=O [Famciclovir]	1.29	1.09	0.9	0.93	0.9	1.05
S=P(N1CC1)(N1CC1)N1CC1 [Thiotepa]	0.7	0.85	0.87	0.8	0.75	0.7
C1N2CN3CN1CN(C2)C3 [Methenamine]	0.95	0.99	1.08	1.18	0.86	0.88
C[C@H](Oc1ccc(S(C)(=O)=O)cc1C(=O)N1CCN(c2ncc(C(F)(F)F)cc2F)CC1)C(F)(F)F [Bitopertin]	1.38	1.54	1.18	1.32	1.57	1.41

SMILES	growth (C. auris AR-384; 1 µM)	growth (C. auris AR-384; 10 µM)	growth (C. auris AR-386; 1 µM)	growth (C. auris AR-386; 10 µM)	growth (C. auris AR-387; 1 µM)	growth (C. auris AR-387; 10 µM)
O=C(NC1CCN(CCCCC2(C(=O)NCC(F)(F)F)c3ccccc3-c3ccccc32)CC1)c1ccccc1-c1ccc(C(F)(F)F)cc1 [Lomitapide Mesylate]	1.2	1.54	1.02	1.03	0.91	1.52
Nc1nc(N)c2nc(-c3ccccc3)c(N)nc2n1 [Triamterene]	1.09	1.26	1.43	1.32	1.6	1.24
COc1cc2ncnc(Nc3ccc(F)c(Cl)c3)c2cc1OCCCN1CCOCC1 [Gefitinib (ZD1839)]	0.67	0.51	0.61	0.72	0.91	1.09
CCCCc1oc2ccccc2c1C(=O)c1cc(I)c(OCCN(CC)CC)c(I)c1 [Amiodarone HCl]	0.78	0.95	0.63	0.86	0.67	0.82
Oc1c(I)cc(Cl)c2cccnc12 [Clioquinol]	0.12	0.11	0.08	0.08	0.02	0.05
COc1cc(C(C)=O)ccc1OCCCN1CCC(c2noc3cc(F)ccc23)CC1 [Iloperidone]	1.04	0.74	0.64	0.72	0.8	0.95
CN(C)c1nc(N(C)C)nc(N(C)C)n1 [Altretamine]	0.81	1.02	1.01	0.89	0.83	0.94
N=C(N)NCCC[C@H](N)C(=O)O [L-Arginine HCl (L-Arg)]	0.9	0.78	0.98	0.66	1.12	1.09
COc1cc(O)c(C(=O)c2ccccc2)cc1S(=O)(=O)O [Sulisobenzone]	0.7	0.76	0.69	0.94	0.76	0.67
C=C1CC[C@H](O)C/C1=C/C=C1\CCC[C@]2(C)[C@@H]([C@H](C)CCCC(C)(C)O)CC[C@@H]12 [Calcifediol]	1.07	0.64	0.95	1.02	0.92	0.8
C[N+](C)(C)CCOC(=O)CCC(=O)OCC[N+](C)(C)C [Succinylcholine Chloride Dihydrate]	0.67	0.81	0.7	0.94	0.8	0.78
N[C@H]1C(O)O[C@H](CO)[C@@H](O)[C@@H]1O (stereo not given in full) [Glucosamine hydrochloride]	1.1	1.12	1.01	1.34	1.56	1.49
CCCCCCOC(=O)NC(=N)c1ccc(NCc2nc3cc(C(=O)N(CCC(=O)OCC)c4ccccn4)ccc3n2C)cc1 [Dabigatran Etexilate]	0.83	0.8	0.97	0.87	0.64	0.85
Fc1ccc([C@@H]2CCNC[C@H]2COc2ccc3c(c2)OCO3)cc1 [Paroxetine HCl]	1.05	1.14	0.88	0.95	0.99	0.93
Nc1nc(=O)c2nc(CNc3ccc(C(=O)N[C@@H](CCC(=O)O)C(=O)O)cc3)cnc2[nH]1 [Folic acid]	1.16	1.2	1.17	1.04	1.02	0.89
CC[C@H]1OC(=O)[C@H](C)[C@@H](O[C@H]2C[C@@](C)(OC)[C@@H](O)[C@H](C)O2)[C@H](C)[C@@H](O[C@@H]2O[C@H](C)C[C@H](N(C)C)[C@H]2O)[C@](C)(O)C[C@@H](C)[C@@H]2N[C@@H](COCCOC)O[C@H]([C@H]2C)[C@]1(C)O [Dirithromycin]	0.99	1.07	1	0.85	1.01	0.97
COC(=O)C1=C(C)NC(C)=C(C(=O)OCCN2CCN(C(c3ccccc3)c3ccccc3)CC2)C1c1cccc([N+](=O)[O-])c1 (stereo not given) [Manidipine]	0.92	1.48	0.99	1.3	1.1	0.95

Two entries from above, with bars between the fields.
SMILES | growth (C. auris AR-384; 1 µM) | growth (C. auris AR-384; 10 µM) | growth (C. auris AR-386; 1 µM) | growth (C. auris AR-386; 10 µM) | growth (C. auris AR-387; 1 µM) | growth (C. auris AR-387; 10 µM)
Fc1ccc([C@@H]2CCNC[C@H]2COc2ccc3c(c2)OCO3)cc1 [Paroxetine HCl] | 1.05 | 1.14 | 0.88 | 0.95 | 0.99 | 0.93
Nc1nc(=O)c2nc(CNc3ccc(C(=O)N[C@@H](CCC(=O)O)C(=O)O)cc3)cnc2[nH]1 [Folic acid] | 1.16 | 1.2 | 1.17 | 1.04 | 1.02 | 0.89
